## Primary screen of a compound library

From ChEMBL document CHEMBL3988442, “University of Dundee, Small-Polar-MMV Screening Library” (2021).

Values are the deposited “Percent Effect”, in %.
How 0% and 100% were set is not recorded. Most values in the screen are low, and negative values occur.
This is an unselected part of the compounds tested.
Two or more numbers in one place are separate tests of the same structure; such repeats can differ widely.
A dash means the value is not listed here; it may have been measured.

T. brucei: 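Whole-parasite assay of Trypanosoma brucei over 72 hours; the read-out is not stated. Concentration: 30 µM. Higher reads as stronger inhibition (inferred: compounds with an IC50 in retests scored well above the rest). Values scatter widely below zero; nearly all retest evidence comes from the higher of the two concentrations used. About 64,000 compounds were tested under these conditions; 1.5% (about 940) showed 50% or more at least once.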
Leishmania in macrophages: 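Cell assay of Leishmania donovani living inside macrophages; the read-out is not stated. Concentration: 30 µM. Direction is inferred from retests: higher values go with stronger inhibition. Size under these conditions: about 69,000 compounds, about 1,000 of them at 50% or above in at least one test.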
Toxoplasma: 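Assay of Toxoplasma gondii numbers, read through their beta-galactosidase reporter with a colour substrate. Tested at 10 µM. The record gives no direction; the compounds picked for IC50 retests had high values, so higher reads as fewer parasites. About 67,000 compounds were tested under these conditions; 0.38% (about 260) showed 50% or more at least once.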

compound	T. brucei	Leishmania in macrophages	Toxoplasma
CCc1nc(CNc2ccc(C(=O)NCc3ccco3)cc2C)no1	18.69	-8.239	1.829
CN(Cc1cnccn1)C(=O)c1ccnc(OC2CCC2)c1	-13.23	2.362	-1.731
CCCn1nc(C(=O)N(C)Cc2nnc3n2CCC3)ccc1=O	-44.74	8.512	3.11
COc1cc2c(cc1CNC(=O)C(C)n1ccnc1C(C)C)CCC2 (stereo unspecified)	-	36.69	-24.3
N#CCCn1nc(C(F)(F)F)c2c1CCC2	-2.847	18.53	-13.51
Cc1cc(C)nc(NC2CCOC3(CCCC3)C2)n1 (stereo unspecified)	-5.558	20.35	13.78
CCc1nnc(CN2CCCC(c3cc(C(N)=O)[nH]n3)C2)o1 (stereo unspecified)	-12.11	25.48	-17.47
O=C(NCCCn1nc2ccccn2c1=O)NCc1ccccc1	-8.155	-12.08	15.05
COCCNS(=O)(=O)c1c(C)sc2ccccc12	13.81	9.728	-9.993
Cn1nc(C#N)c2c1CN(C(=O)c1cccnc1)CCC2.O=C(O)C(F)(F)F	-32.12	0.8141	-6.098
O=C(NC1CCN(c2ccc(-c3ccccc3F)nn2)C1)c1ccc[nH]1 (stereo unspecified)	-18.06	22.72 and 43.23	10.42
COc1ccc(C(C)NC(=O)NCCCn2cncn2)cc1F (stereo unspecified)	-19.91	17.93	-5.952
CCCNC1(c2ccc(Cl)cc2)CCOCC1	-54.67	21.5	-34.3
CN(C)CCn1ccnc1C1CCCN(c2cc(N)ncn2)C1 (stereo unspecified)	-40.04	-1.872	16.38
O=C(CN1CCCc2sccc2C1=O)NC1CCc2nccn2C1 (stereo unspecified)	-36.19	-117	-11.57
CC(=O)N(C)CCCc1cc(-c2ccccc2)no1	-	16.23	20.05
CN(Cc1cc(C2CC2)[nH]n1)C(=O)C(c1cccnc1)N1CCCC1 (stereo unspecified)	-	1.879	-0.6238
CCc1ncc2c(n1)CN(c1cc(N3CCN(C)CC3)nc(N)n1)C2	-75.03	21.35	29.49
[H][C@@]12CCN(C(=O)c3cscn3)[C@@]1([H])CCN2c1ccccn1	-8.78	16.14	9.155
O=C(NCc1cc[nH]n1)N1CCN(c2ccccc2Cl)CC1	26.89	32.13	-9.479
O=C(O)C(F)(F)F.O=C(O)C(F)(F)F.[H][C@@]12OCCN(Cc3csc(C)n3)[C@@]1([H])CC[C@@H]2Oc1ccccn1	4.82	33.69	4.083
COCCc1ncc(CNC2(c3ccc(Cl)cc3Cl)CC2)cn1	9.604	21.37 and 22	-11.18
O=C1CC(C(=O)Nc2nnc(-c3ccccn3)[nH]2)c2ccccc2N1 (stereo unspecified)	-2.473	20.21	6.535
O=C1N(Cc2ccc(F)c(F)c2)CCCC1(O)CNCC1CCCCC1 (stereo unspecified)	-26.1	62.26	16.01
O=C(O)C(F)(F)F.[H][C@@]12CN(Cc3cccc(C)n3)C[C@]1([H])OCCN2c1cnccn1	1.552	-3.553	-0.308
Cc1ccc(CNC2CCCc3c2cnn3Cc2ccccc2)s1.Cl (stereo unspecified)	15.28	25.89	2.432
Cc1cc(C)cc(C2(C(=O)NCC3CCN(CC(F)(F)F)C3)CC2)c1 (stereo unspecified)	-14.99	16.41	3.738
O=C(c1n[nH]c(=O)c2ccccc12)N1CCCC1Cn1cccn1 (stereo unspecified)	-19.76	-14.63	-7.148
COC1COC2(CCN(CC3CC3)CC2)C1.O=C(O)C(F)(F)F (stereo unspecified)	-9.645	18.41	19.16
COc1cccc(NC(=O)N(CCO)C2CCc3ccccc32)c1 (stereo unspecified)	-55.47	-33.72	6.274
Cc1cc(C(=O)N2CCN(Cc3ccco3)C(CCO)C2)cc(=O)[nH]1 (stereo unspecified)	1.831	18.93	4.48
O=S(=O)(CCc1ccccc1)Nc1cc(Cl)ccn1	-34.81	-153.5	3.668
Cc1cc(NC(=O)CN2CCn3c(nnc3C3CC3)C2)on1	7.08	19.26	-28.38
COc1cc(CC(O)CO)c(OC)c2c1OCO2 (stereo unspecified)	4.043	-15.99	10.16
CC(=O)N1CCN(c2cc(C)ncn2)CC(CO)C1 (stereo unspecified)	-25.48	9.798	-34.46
Cc1cc(C(=O)N2CC[C@H](OCC3CC3)[C@@H]2Cc2cccnc2)no1	-21.14	-2.721	4.487
[H][C@@]12COC[C@]1(COCC1CCOCC1)CN(C(=O)Cc1ccco1)C2	-35.92	20.4	-44.07
O=C(O)C(F)(F)F.[H][C@]12CC[C@@]3(N=C(CC)N(C)C3=O)[C@@]1([H])CN(Cc1ccccc1C)C2	-73.62	57.66	-16.25
CN(Cc1cc(Br)cs1)Cc1nnsc1Cl	-26.16	-2.927	7.129
Cc1nc(CN2CCN(C)C(=O)C23CCN(CC2CCCC2)CC3)cs1	11.25	21.29	1.062
O=C(O)C(F)(F)F.[H][C@@]12CN(Cc3ccncc3)CC[C@]1([H])CN(c1ncccn1)C2	-2.942	47.06	-10.37
Fc1ccccc1-c1noc2c1CN(CC1CC1)CC2	-80.32	22.3	-3.941
CC/C=C(\C)CN1CCC(CNC(=O)c2ccnc(N)c2)C1 (stereo unspecified)	-10.76	-1.483	-4.494

3 of the entries, repeated:

compound,T. brucei,Leishmania in macrophages,Toxoplasma
O=C(NCCCn1nc2ccccn2c1=O)NCc1ccccc1,-8.155,-12.08,15.05
CN(C)CCn1ccnc1C1CCCN(c2cc(N)ncn2)C1 (stereo unspecified),-40.04,-1.872,16.38
O=C(c1n[nH]c(=O)c2ccccc12)N1CCCC1Cn1cccn1 (stereo unspecified),-19.76,-14.63,-7.148